These are yes or no findings as the source states them, for the method shown. In cells and extracts the contact can be indirect. Some entries that bind do so weakly or less than the wild type.
What was measured:
[1] = molecular target: DDB2 (in the melanoma cell line A875) (UniProt Q92466); experiment: co-IP; melanoma cell line A875; details only in Supplementary Figure S7A, B
[2] = molecular target: full-length DDB2-GFP (human (cDNA derived from 293 cells)) (UniProt Q92466); experiment: co-IP; lysates of transfected HEK293 cells (20 mM HEPES pH 8.0, 0.2 mM EDTA, 5% glycerol, 150 mM NaCl, 1% NP-40; sonicated); IP with anti-Flag, anti-HA, anti-GFP or GFP-Trap, western blot; in some panels with or without UVC (20 J/m^2), SIRT6 depletion or ethidium bromide pretreatment
full-length SIRT6-Flag = full-length SIRT6-Flag (UniProt Q8N6T7); experiment: as above
SIRT6 R65A = SIRT6 R65A (UniProt Q8N6T7); experiment: co-IP; with or without UV irradiation; details only in Supplementary Figures S10 and S14
SIRT6 H133Y = SIRT6 H133Y (UniProt Q8N6T7); experiment: as above
[3] = molecular target: DDB2-Flag (human (cDNA derived from 293 cells)) (UniProt Q92466); experiment: co-IP; lysates of transfected HEK293 cells (20 mM HEPES pH 8.0, 0.2 mM EDTA, 5% glycerol, 150 mM NaCl, 1% NP-40; sonicated); IP with anti-Flag, anti-HA, anti-GFP or GFP-Trap, western blot; in some panels with or without UVC (20 J/m^2), SIRT6 depletion or ethidium bromide pretreatment
[4] = molecular target: DDB2-2KR-GFP (human (cDNA derived from 293 cells)) (UniProt Q92466); experiment: as above
[5] = molecular target: HA-tagged DDB2 (human (cDNA derived from 293 cells)) (UniProt Q92466); experiment: as above

The chains behind the UniProt entries cited, without tags or fusion partners. Where a name states a change or a piece, a line headed by the entry shows the natural chain unless it says otherwise. A line that says so, or that is headed by a name, gives the form on record, which may keep a tag or linker.
UniProt Q92466: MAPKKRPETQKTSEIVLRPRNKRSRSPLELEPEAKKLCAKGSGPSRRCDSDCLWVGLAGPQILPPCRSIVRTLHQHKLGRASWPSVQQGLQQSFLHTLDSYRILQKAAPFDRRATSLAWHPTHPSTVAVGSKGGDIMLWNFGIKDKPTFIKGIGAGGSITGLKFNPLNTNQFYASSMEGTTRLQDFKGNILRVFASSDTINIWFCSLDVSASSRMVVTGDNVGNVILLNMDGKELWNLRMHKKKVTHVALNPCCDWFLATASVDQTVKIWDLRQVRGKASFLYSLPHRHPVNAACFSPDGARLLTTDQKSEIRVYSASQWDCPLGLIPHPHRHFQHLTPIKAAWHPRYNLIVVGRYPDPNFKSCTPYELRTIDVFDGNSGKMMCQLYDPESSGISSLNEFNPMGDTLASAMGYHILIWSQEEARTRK
DDB2-2KR-GFP (human (cDNA derived from 293 cells)) (Q92466, form named): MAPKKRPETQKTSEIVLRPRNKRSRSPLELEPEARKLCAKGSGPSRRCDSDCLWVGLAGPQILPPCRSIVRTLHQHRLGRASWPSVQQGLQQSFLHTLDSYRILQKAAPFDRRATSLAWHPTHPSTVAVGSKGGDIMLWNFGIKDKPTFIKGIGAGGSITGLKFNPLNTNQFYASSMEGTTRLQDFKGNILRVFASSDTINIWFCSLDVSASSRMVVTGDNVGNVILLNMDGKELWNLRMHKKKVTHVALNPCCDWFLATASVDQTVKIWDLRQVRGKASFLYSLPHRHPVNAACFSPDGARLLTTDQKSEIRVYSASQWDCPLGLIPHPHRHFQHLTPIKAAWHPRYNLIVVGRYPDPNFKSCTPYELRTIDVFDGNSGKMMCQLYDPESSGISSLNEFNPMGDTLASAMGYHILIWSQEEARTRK
UniProt Q8N6T7: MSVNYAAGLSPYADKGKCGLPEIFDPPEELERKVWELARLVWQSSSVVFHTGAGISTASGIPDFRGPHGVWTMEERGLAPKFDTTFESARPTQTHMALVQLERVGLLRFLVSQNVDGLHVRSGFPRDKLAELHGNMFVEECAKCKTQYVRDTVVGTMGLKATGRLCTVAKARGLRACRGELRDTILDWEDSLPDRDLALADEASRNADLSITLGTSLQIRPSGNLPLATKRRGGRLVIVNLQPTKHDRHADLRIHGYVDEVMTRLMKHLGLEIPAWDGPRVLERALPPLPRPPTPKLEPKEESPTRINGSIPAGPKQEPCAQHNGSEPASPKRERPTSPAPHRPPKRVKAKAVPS

For “SIRT6 (in the melanoma cell line A875) (from UniProt Q8N6T7 1-355) (enzyme)”, the binding [1] was “binds”.
In the case of “full-length SIRT6-Flag (from UniProt Q8N6T7 1-355) (enzyme)”, the binding [2] is reported as “binds”.
With “DDB2 fragment 1-GFP (1–100 aa) (from UniProt Q92466 1-100) (domain or fragment)” the binding (full-length SIRT6-Flag) was “binds”.
“SIRT6 ΔC-Flag (1-271 aa) (from UniProt Q8N6T7 1-271) (domain or fragment)” was tested, and the binding [2] was “binds”.
In the case of “deacetylase core fragment SIRT6 ΔNΔC-Flag (49–271 aa) (from UniProt Q8N6T7 49-271) (domain or fragment)”, the binding [2] is reported as “binds”.
With DDB2 (from UniProt Q92466 1-427) the binding (full-length SIRT6-Flag) was “binds”.
In the case of “SIRT6 ΔN-Flag (49–355 aa) (from UniProt Q8N6T7 49-355) (domain or fragment)”, the binding [2] is reported as “binds”.
“DDB2 (construct not stated; Supplementary Figures S9C, S10, S14) (from UniProt Q92466 1-427)” was tested, and the binding (SIRT6 R65A) was “binds” and the binding (SIRT6 H133Y) was “binds”.
In the case of “p97 (from UniProt P55072 1-806) (enzyme)”, the binding [3] is reported as “binds”, the binding [2] is reported as “binds” and the binding [4] is reported as “binds”.
In the case of “SIRT6 (from UniProt Q8N6T7 1-355) (enzyme)”, the binding [5] is reported as “binds”.
For “full-length DDB2-GFP (from UniProt Q92466 1-427)”, the binding (full-length SIRT6-Flag) was “binds”.
